Results published in PubChem BioAssay AID1688 (National Center for Advancing Translational Sciences (NCATS), 2009).
Screen size: about 220,000 compounds; about 2,400 (1.1%) were called active. Inconclusive means that the source gave no clear call. Such entries were picked first, then a sample of the others. Calls come from the whole dose curve; as a rule, active = well fitted inhibition curve with a large enough effect; inconclusive = small, poorly fitted or top-dose-only effect, or effect the other way; inactive = no such curve, though single readings can be large or run the other way. Potencies of inconclusive entries are doubtful fits and often do not repeat.

experiment: qHTS Multiplex Assay to Identify Dual Action Probes in a Cell Model of Huntington: Aggregate Formation (GFP); conditions: PC12 HttQ103-GFP aggregates, Acumen cytometry, 40 h; activity change, negative = inhibition: at 46.1 µM (top of the series) unless noted; note: nearly all actives have a fitted effect of over 60% in size
How it was run: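 Ecdysone-promoter PC12 model expressing HTT exon 1 Q103 fused to GFP, induced by tebufenozide at 100 nM final. Compounds titrated; aggregates sized 1–25 µm scored on a 488 nm laser cytometer.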
% is set by controls: 0 for no effect and ±100 for the full control effect; potency is the fitted concentration of half-maximal effect.

| Compound | activity change, negative = inhibition | Potency |
| --- | --- | --- |
| Cc1sc2nc3c(C(=O)N4CCCC4)cc(C(=O)c4ccccc4O)cn3c(=O)c2c1C | inactive: -23.5% | – |
| CSc1nc(C)c(Cl)c(C)c1C#N | – | inconclusive: 6.31 µM [activator, single point] |
| COc1ccc(C)cc1-n1nnnc1SCC1CCCCO1 (stereo unspecified) | inactive: 3.26% [at 9.22 µM] | – |
| Oc1ccc(Br)cc1/C=N/N1CCCCC1 | – | inconclusive: 1.26 µM [inhibitor, full curve, poor fit] |
| Cn1ncc2c(NCc3ccccc3)ncnc21 | – | inconclusive: 4.47 µM [activator, single point] |
| COC(=O)c1sccc1NC(=O)c1ccc(C)o1 | inactive: 12.2% | – |
| CCn1c2ccccc2c2cc(N=C3SC(CC(=O)Nc4ccccc4OC)C(=O)N3CCOC)ccc21 (stereo unspecified) | inactive: 32.7% | – |
| COc1ccc(C2(CNC(=O)/C=C\c3ccco3)CCCC2)cc1OC | – | inconclusive: 12.6 µM [activator, partial curve] |
| Cc1nc(Nc2ccc(Cl)cc2Cl)sc1C(=O)Nc1ccccc1 | – | inconclusive: 35.5 µM [inhibitor, single point] |
| COc1ccc2nc(-c3cccc(N)c3)[nH]c2c1 | – | inconclusive: 1.26 µM [activator, single point] |
| COc1ccc(NC(C)c2cc(Cl)ccc2O)cc1 (stereo unspecified) | inactive: 0.425% | – |
| CC(Oc1ccc(F)cc1)C(=O)/C=C\N(C)C (stereo unspecified) | inactive: -2.47% | – |
| Cc1ccc(S(=O)(=O)Cn2nnnc2CN2CCOCC2)cc1 | inactive: 14.2% [at 9.22 µM] | – |
| CCN(CC)C(=O)CSC1=N/C(=C/c2ccco2)C(=O)N1c1ccc(OC)c(Cl)c1 | – | inconclusive: 12.6 µM [activator, partial curve] |
| CC(NC(=O)/C(C#N)=C/c1cn[nH]c1-c1ccccc1)c1ccccc1 (stereo unspecified) | – | inconclusive: 25.1 µM [inhibitor, single point] |
| Cn1c2c(c(=O)n(C)c1=O)C(C(F)(F)F)(C(F)(F)F)N=C(c1ccc(Cl)cc1)N2 | – | active: 1.26 µM |
| COc1ccccc1N1CCN(c2ncc(C(=O)N3CCN(c4cccc(Cl)c4)CC3)c3ccccc23)CC1 | – | inconclusive: 6.31 µM [inhibitor, partial curve] |
| CC(=O)Nc1cccc(NS(=O)(=O)Cc2ccc(Cl)cc2)c1 | inactive: -13.8% | – |
| CCOC(=O)c1sc(NC(=O)Nc2ccc(Cl)cc2)nc1C | – | inconclusive: 20 µM [inhibitor, single point] |
| CCc1ccccc1N=C1S/C(=C/c2ccccc2OCC(=O)N2CCOCC2)C(=O)N1C | inactive: -14.1% | – |
| Cc1ccc(S(=O)(=O)Nc2ccc3nc(N)sc3c2)cc1 | – | inconclusive: 35.5 µM [inhibitor, single point] |
| CC(C)(C)C1CCC(=NNc2nc3ccccc3[nH]2)CC1 (stereo unspecified) | inactive: -16.5% | – |
| C=CCNC(=O)Cn1nc(-c2ccccc2)ccc1=O | – | inconclusive: 0.0891 µM [inhibitor, partial curve, poor fit] |

| Compound | activity change, negative = inhibition | Potency |
| --- | --- | --- |
| CC1C(c2ccccc2)N(C)C(c2ccccc2)CC1(O)c1ccc(F)cc1 (stereo unspecified) | – | inconclusive: 35.5 µM [inhibitor, single point] |
| CCCCn1c(=O)[nH]c(=O)c2c1nc(-c1ccc(OCCC)c(OCC)c1)n2CCOC | inactive: 2.9% | – |
| Cc1ccc(C)c(OCC(O)CN2CCC(CN3C(=O)c4cccc5cccc(c45)C3=O)CC2)c1 (stereo unspecified) | – | inconclusive: 35.5 µM [inhibitor, single point] |
| Cc1nnc(SCc2ccccc2Cl)n(N)c1=O | – | inconclusive: 5.62 µM [activator, single point] |
| CCOc1cc(/C=C2\CCCC(C(=O)C(F)(F)F)=C2O)ccc1O | – | inconclusive: 31.6 µM [activator, single point] |
| CCOC(=O)C1CCCN(/C=C2\SC(=S)N(CC)C2=O)C1 (stereo unspecified) | inactive: -2.61% [at 9.22 µM] | – |
| COc1ccc([C@H]2[C@H]3C=CC[C@@H](C)[C@@H]3C(=O)N2Cc2ccccc2)cc1Cl | – | inconclusive: 0.316 µM [inhibitor, partial curve] |
| O=C(CNC(=O)c1ccc(F)cc1)N/N=C/c1cc(Br)ccc1OCc1ccccc1 | – | inconclusive: 35.5 µM [inhibitor, single point] |
| NS(=O)(=O)c1ccc(NC(=O)COC(=O)c2cn(-c3ccccc3)nc2-c2ccc(F)cc2)cc1 | – | inconclusive: 28.2 µM [activator, single point] |
| O=C(NNc1nc2ccc(Cl)cc2s1)c1cc(-c2cccs2)nc2ccccc12 | – | active: 14.1 µM |
| O=C(Nc1nc(-c2ccccc2)cs1)c1ccccc1NS(=O)(=O)c1ccc(F)cc1 | – | active: 1.78 µM |
| Cc1cccc(NC(=O)c2ccc(C(=O)c3ccccc3)o2)c1 | – | inconclusive: 7.08 µM [activator, partial curve, poor fit] |
| C[C@@H]1C=C(C(=O)N2CCOCC2)O[C@H](OCc2ccc(CO)cc2)C1 | inactive: 6.53% [at 9.22 µM] | – |
| CCCCN(CCCC)S(=O)(=O)c1ccc(C(=O)Nc2nnc(COC)o2)cc1 | – | active: 11.2 µM |
| Cc1cc2ncn(CCCCOc3ccccc3)c2cc1C | – | active: 11.2 µM |
| CCN(CC)S(=O)(=O)c1ccc2oc(C(=O)NCC3COc4ccccc4O3)c(C)c2c1 (stereo unspecified) | – | inconclusive: 2.51 µM [inhibitor, partial curve] |
| N#Cc1nc(COc2ccc(Br)cc2)oc1N1CCCCCC1 | – | inconclusive: 10 µM [inhibitor, partial curve] |
| Cc1ccc(C)c(NC(=O)c2sc(Cl)nc2C)c1 | inactive: 19.2% | – |
| C=C(CC1([C@@H](NP(=O)(c2ccccc2)c2ccccc2)[C@H]2C[C@@H]2CCCC)CC1)c1ccccc1 | – | inconclusive: 17.8 µM [inhibitor, single point] |
| O=C(NNc1nc2ccccc2s1)c1ccccc1F | – | inconclusive: 15.8 µM [inhibitor, single point] |
| CCOc1cc(/C=C\[N+](=O)[O-])ccc1OCC(=O)N1CCOCC1 | – | inconclusive: 35.5 µM [inhibitor, single point] |
| Cc1ccccc1C(=O)Nc1ccc(-c2nc3ccc(C(=O)c4ccccc4)cc3[nH]2)cc1 | – | active: 11.2 µM |
| Cc1sc(Nc2ccc([N+](=O)[O-])cc2)nc1-c1c(C)n(C)n(-c2ccccc2)c1=O | – | inconclusive: 3.98 µM [activator, full curve, poor fit] |

Nothing new here: an excerpt of the list.

| Compound | activity change, negative = inhibition | Potency |
| --- | --- | --- |
| COc1ccc(C2(CNC(=O)/C=C\c3ccco3)CCCC2)cc1OC | – | inconclusive: 12.6 µM [activator, partial curve] |
| Cc1nc(Nc2ccc(Cl)cc2Cl)sc1C(=O)Nc1ccccc1 | – | inconclusive: 35.5 µM [inhibitor, single point] |
| COc1ccc2nc(-c3cccc(N)c3)[nH]c2c1 | – | inconclusive: 1.26 µM [activator, single point] |
| COc1ccc(NC(C)c2cc(Cl)ccc2O)cc1 (stereo unspecified) | inactive: 0.425% | – |
